Experimental findings from publication PMC4380398 are described below.

Amino acid sequences for entries named in this document (tags omitted).
UniProt P42337: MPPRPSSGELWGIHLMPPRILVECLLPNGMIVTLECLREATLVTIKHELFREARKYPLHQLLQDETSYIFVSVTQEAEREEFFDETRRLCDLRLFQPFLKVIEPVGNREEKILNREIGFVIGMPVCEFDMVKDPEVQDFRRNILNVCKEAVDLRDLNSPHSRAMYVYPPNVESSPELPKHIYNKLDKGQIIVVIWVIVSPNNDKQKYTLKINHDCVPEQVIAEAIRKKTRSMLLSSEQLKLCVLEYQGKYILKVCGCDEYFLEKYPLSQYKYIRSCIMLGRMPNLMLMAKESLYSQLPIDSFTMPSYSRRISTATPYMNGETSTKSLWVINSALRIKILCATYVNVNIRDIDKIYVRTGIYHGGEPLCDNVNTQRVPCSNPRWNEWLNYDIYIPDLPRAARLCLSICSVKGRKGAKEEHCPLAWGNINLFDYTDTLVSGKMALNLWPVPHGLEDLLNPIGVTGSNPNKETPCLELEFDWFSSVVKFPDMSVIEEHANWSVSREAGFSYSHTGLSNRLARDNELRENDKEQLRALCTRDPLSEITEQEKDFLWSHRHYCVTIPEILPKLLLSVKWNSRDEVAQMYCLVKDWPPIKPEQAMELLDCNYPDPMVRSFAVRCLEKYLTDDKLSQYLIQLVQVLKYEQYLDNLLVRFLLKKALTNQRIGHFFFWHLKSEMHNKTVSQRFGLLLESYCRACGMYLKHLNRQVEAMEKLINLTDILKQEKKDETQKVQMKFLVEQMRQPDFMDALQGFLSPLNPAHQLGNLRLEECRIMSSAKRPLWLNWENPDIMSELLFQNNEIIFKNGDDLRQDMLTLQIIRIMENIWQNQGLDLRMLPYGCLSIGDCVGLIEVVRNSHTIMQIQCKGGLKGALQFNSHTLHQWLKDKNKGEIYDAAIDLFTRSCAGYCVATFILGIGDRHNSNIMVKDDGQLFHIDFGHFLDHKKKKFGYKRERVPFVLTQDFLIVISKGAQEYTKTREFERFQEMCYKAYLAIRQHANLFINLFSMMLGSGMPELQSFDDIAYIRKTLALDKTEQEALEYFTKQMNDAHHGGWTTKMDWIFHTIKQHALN

The target in assay [1] is p110α catalytic subunit of PI3K, mouse heart (mouse (endogenous in adult mouse heart tissue)) (UniProt P42337). As to the kind of experiment: co-IP; adult mouse heart tissue solubilised in 1% Triton X-100 lysis buffer (25 mM Tris/HCl pH 7.4, 150 mM NaCl, 0.5 mM EDTA), antibody overnight at 4°C, protein A magnetic beads, three washes; endogenous proteins; Western blot. In general terms: A western blot detects proteins with antibodies after separation by electrophoresis.

For assay [2], the target named is p110α catalytic subunit of PI3K, neonatal rat cardiomyocytes (rat (endogenous in NRCM)). As to the kind of experiment: co-IP; NRCM solubilised in 1% Triton X-100 lysis buffer (25 mM Tris/HCl pH 7.4, 150 mM NaCl, 0.5 mM EDTA), antibody overnight at 4°C, protein A magnetic beads, three washes; endogenous proteins; Western blot.

These are yes or no findings as the source states them, for the method shown. In cells and extracts the contact can be indirect. Some binding calls cover weakened binding; strength is not graded here.

For “PI3K interacting protein1 (Pik3ip1), mouse heart (from UniProt Q7TMJ8 22-264)”, the binding result in assay [1] was “binds”.

B1: PI3K interacting protein1 (Pik3ip1), neonatal rat cardiomyocytes (protein, UniProt Q56A20 22-267)
chain: SGGCFWDNGHLYREDQPSPAPGLRCLNWLAAQGSGESLAQPSPGNHNYCRNPDQDPRGPWCYISSETGVPEKRPCEDLRCPETTSQAPPPPPPSSTTELEEKFGVPGDKETQVFPPANALPARSEAAEVQPVIGISQRVRMNSKEKKDLGTLGYVLGVTMTVIIIAIGVGIVLGYTYKRGKDLKEQHEQKVCEREMQRITLPLSAFTNPTCEIMDEKTIIVHSNQTPADVQEGSTLLTDQAGTPGA
Regarding B1, in assay [2], the binding entry is given as “binds”.
